Reference: the supplement of paper PMC4683952
Where a name gives a salt, the structure may show the parent alone. This is one part of the list. No stated cut-off is given here; in the data, active = 2.5 or more and inactive = the rest. Most values lie within the scatter of the assay; repeated measurements hardly agree.

These compounds were tested on Lgr5 (MarsCy1-Lgr5-EGFP, U2OS) (assay: cell-surface Lgr5 expression (SCi1 fluorescence, background-subtracted) relative to WT control (fold of WT control); higher = more Lgr5 at the plasma membrane). Conditions: U2OS MarsCy1-Lgr5-EGFP stable; treatment time: overnight; library: Prestwick; 20 µM.

Structure (SMILES) | cell-surface Lgr5 expression
CC(=O)[C@H]1CC[C@H]2[C@@H]3C[C@H](C)C4=CC(=O)CC[C@]4(C)[C@H]3[C@@H](O)C[C@]12C [Medrysone] | active: 3.7
Cn1c(-c2ccc3c(c2)OCO3)cc(=O)c2ccccc21 [Graveoline] | inactive: 1.97
CCn1cc(C(=O)O)c(=O)c2cnc(N3CCCC3)nc21 [Piromidic acid] | inactive: 1.51
CNCCC(Oc1ccc(C(F)(F)F)cc1)c1ccccc1 (configuration not stated) [Fluoxetine hydrochloride] | active: 2.65
Cc1nc2n(c(=O)c1CCN1CCC(c3noc4cc(F)ccc34)CC1)CCCC2 [Risperidone] | inactive: 0.851
CCS(=O)(=O)CCn1c([N+](=O)[O-])cnc1C [Tinidazole] | inactive: 2.34
CCCCOc1cc(C(=O)NCCN(CC)CC)c2ccccc2n1 [Dibucaine] | inactive: 1.47
CCC1=C(C)CN(C(=O)NCCc2ccc(S(=O)(=O)NC(=O)N[C@H]3CC[C@H](C)CC3)cc2)C1=O [Glimepiride] | inactive: 2.43
COc1ccc2cc1Oc1ccc(cc1)C[C@H]1c3cc(c(OC)cc3CCN1C)Oc1c(OC)c(OC)cc3c1[C@H](C2)N(C)CC3 [Tetrandrine] | inactive: 1.81
COc1ccc2cc([C@@H](C)C(=O)O)ccc2c1 [(R) -Naproxen sodium salt] | active: 3.64
Nc1nc(=O)c2c([nH]1)NC[C@@H](CNc1ccc(C(=O)N[C@@H](CCC(=O)O)C(=O)O)cc1)N2C=O [Folinic acid calcium salt] | inactive: 1.11
CC(C)NCC(O)COc1cccc2ccccc12 (configuration not stated) [Propranolol hydrochloride] | inactive: 1.56
CC1(C)NC(=O)N(c2ccc([N+](=O)[O-])c(C(F)(F)F)c2)C1=O [Nilutamide] | active: 3
CCCCC(CC)CNC(=N)NC(=N)NCCCCCCNC(=N)NC(=N)NCC(CC)CCCC (configuration not stated) [Alexidine dihydrochloride] | inactive: 1.85
COC(=O)[C@@H]1[C@H]2C[C@H]3c4[nH]c5ccccc5c4CCN3C[C@@H]2CC[C@@H]1O [Yohimbine hydrochloride] | active: 3.7
O=C(O)CCC(=O)Nc1ccc(S(=O)(=O)Nc2nccs2)cc1 [Succinylsulfathiazole] | inactive: 1.76
COc1cnc(NS(=O)(=O)c2ccc(N)cc2)nc1 [Sulfameter] | inactive: 1.31
Cc1cccc(CN2CCN(C(c3ccccc3)c3ccc(Cl)cc3)CC2)c1 (configuration not stated) [Meclozine dihydrochloride] | inactive: 1.03
CNCCC(Oc1ccccc1OC)c1ccccc1 (configuration not stated) [Nisoxetine hydrochloride] | inactive: 1.66
CCOC(=O)C1=C[C@]2(CC)CCCN3CCc4c(n1c1ccccc41)[C@@H]32 [Vinpocetine] | inactive: -0.0923
C[C@]12CC[C@@H]3c4ccc(O)cc4CC[C@H]3[C@@H]1CCC2=O [Estrone] | inactive: 2
CN(C)[C@@H]1C(O)=C(C(N)=O)C(=O)[C@@]2(O)C(O)=C3C(=O)c4c(O)ccc(Cl)c4[C@@](C)(O)[C@H]3C[C@@H]12 [Chlortetracycline hydrochloride] | inactive: 0.799
CC(=O)N(CC(C)C(=O)O)c1c(I)cc(I)c(N)c1I (configuration not stated) [Iocetamic acid] | inactive: 2.03

Structure (SMILES) | cell-surface Lgr5 expression
c1ccc2[nH]c(-c3cscn3)nc2c1 [Tiabendazole] | inactive: 1.47
CN1[C@@H](CC(=O)c2ccccc2)CCC[C@H]1C[C@H](O)c1ccccc1 [Lobeline alpha (-) hydrochoride] | active: 2.56
CC1CS(=O)(=O)CCN1/N=C/c1ccc([N+](=O)[O-])o1 (configuration not stated) [Nifurtimox] | inactive: 1.07
C=C1C[C@]23C[C@@]1(O)CC[C@H]2[C@@]12C=C[C@H](O)[C@@](C)(C(=O)O1)[C@H]2[C@@H]3C(=O)O [Gibberellic acid] | inactive: 0.807
CC1=C(CC(=O)O)c2cc(F)ccc2/C1=C\c1ccc([S+](C)[O-])cc1 (configuration not stated) [Sulindac] | inactive: 1.16
CN(C)CCCO[C@@H]1[C@H]2OC(C)(C)O[C@H]2O[C@@H]1[C@H](O)CO [Amiprilose hydrochloride] | inactive: 1.94
C[C@]12CC[C@@H]3c4ccc(O)cc4CC[C@H]3[C@@H]1C[C@@H](O)[C@@H]2O [Estriol] | inactive: 1.06
CCc1cccc2c3c([nH]c12)C(CC)(CC(=O)O)OCC3 (configuration not stated) [Etodolac] | active: 3.21
Cc1noc(NS(=O)(=O)c2ccc(N)cc2)c1C [Sulfisoxazole] | inactive: 1.19
CC[N+](CC)(CC)CCC(O)(c1ccccc1)C1CCCCC1 (configuration not stated) [Tridihexethyl chloride] | inactive: 1.33
CCOC(=O)[C@H](CCc1ccccc1)N[C@@H](C)C(=O)N1CCC[C@H]1C(=O)O [Enalapril maleate] | inactive: 1
CO/N=C(\C(=O)N[C@@H]1C(=O)N2C(C(=O)O)=C(C[N+]3(C)CCCC3)CS[C@H]12)c1csc(N)n1 [Cefepime hydrochloride] | inactive: 1.04
COc1ccc2[nH]c([S+]([O-])Cc3ncc(C)c(OC)c3C)nc2c1 (configuration not stated) [Omeprazole] | active: 3.17
CC(=O)Nc1ccc(O)cc1 [Acetaminophen] | inactive: 1.91
OCCOCCN1CCN(C(c2ccccc2)c2ccc(Cl)cc2)CC1 (configuration not stated) [Hydroxyzine dihydrochloride] | inactive: 1.25
C=CC1=C(C(=O)O)N2C(=O)[C@@H](NC(=O)/C(=N\OCC(=O)O)c3csc(N)n3)[C@H]2SC1 [Cefixime] | inactive: 0.918
Cc1ccccc1N1C(=O)c2cc(S(N)(=O)=O)c(Cl)cc2NC1C (configuration not stated) [Metolazone] | inactive: 0.547
CCC(=O)OCC(=O)[C@@]1(OC(=O)CC)[C@H](C)C[C@H]2[C@H]3[C@H]([C@@H](O)C[C@@]21C)[C@@]1(C)C=CC(=O)C=C1C[C@H]3Cl [Alclometasone dipropionate] | active: 3.32
c1ccc2c(c1)CCCc1cc(NCCN3CCOCC3)nnc1-2 | inactive: 1.67
Nc1cc(-c2ccncc2)c[nH]c1=O [Amrinone] | inactive: 0.978
CN(C)CCOC(=O)COc1ccc(Cl)cc1 [Meclofenoxate hydrochloride] | inactive: 1.92
N=C(N)N/N=C/c1c(Cl)cccc1Cl [Guanabenz acetate] | inactive: 1.24
OC(CCN1CCCCC1)(c1ccccc1)C1CCCCC1 (configuration not stated) [Trihexyphenidyl-D,L Hydrochloride] | active: 2.57

Structure (SMILES) | cell-surface Lgr5 expression
N[C@@H](C(=O)N[C@@H]1C(=O)N2C(C(=O)O)=C(Cl)CS[C@H]12)c1ccccc1 [Cefaclor] | active: 3.42
CC(Oc1ccccc1)C(=O)N[C@@H]1C(=O)N2[C@@H]1SC(C)(C)[C@@H]2C(=O)O (some centres not stated) [Phenethicillin potassium salt] | inactive: 0.257
CN(C)[C@@H]1C(O)=C(C(N)=O)C(=O)[C@@]2(O)C(O)=C3C(=O)c4c(O)ccc(Cl)c4[C@@H](O)[C@H]3C[C@@H]12 [Demeclocycline hydrochloride] | inactive: 1.72
Cn1c([N+](=O)[O-])cnc1COC(N)=O [Ronidazole] | inactive: 1.47
O=c1c(O)c(-c2ccc(O)c(O)c2)oc2cc(O)cc(O)c12 [Quercetine dihydrate] | inactive: 1.94
COc1ccc(C(=O)c2ccccc2O)c(O)c1 [Dioxybenzone] | inactive: 1.94
CC(C)(C)NC[C@H](O)COc1ccccc1C1CCCC1 [Penbutolol sulfate] | inactive: 1.54
CCCCC[C@H](O)/C=C/[C@H]1[C@H](O)CC(=O)[C@@H]1CCCCCCC(=O)O [Alprostadil] | inactive: 1.51
CCOc1ccc(NC(C)=O)cc1 [Phenacetin] | inactive: 1.9
CN1CCC[C@@H]1CCO[C@](C)(c1ccccc1)c1ccc(Cl)cc1 [Clemastine fumarate] | inactive: 1.2
CC(C(=O)O)c1ccc(C(=O)c2cccs2)cc1 (configuration not stated) [Suprofen] | inactive: 2.11
C#C[C@]1(O)CC[C@H]2[C@@H]3CCC4=C(CCC(=O)C4)[C@H]3CC[C@@]21C [Norethynodrel] | inactive: 1.22
NS(=O)(=O)c1cc2c(cc1Cl)NC(CC1CCCC1)NS2(=O)=O (configuration not stated) [Cyclopenthiazide] | inactive: 1.23
CC(C)(C)NCC(O)c1cc(O)cc(O)c1 (configuration not stated) [Terbutaline hemisulfate] | inactive: 2.11
CCOC(=O)[N-]c1c[n+](N2CCOCC2)no1 [Molsidomine] | active: 3.19
CC[N+](CC)(CC)CCOc1cccc(OCC[N+](CC)(CC)CC)c1OCC[N+](CC)(CC)CC [Gallamine triethiodide] | inactive: 0.889
NCc1ccc(S(N)(=O)=O)cc1 [Mafenide hydrochloride] | inactive: 1.13
CN[C@@H]1[C@H](O[C@H]2[C@H](O[C@H]3[C@H](O)[C@@H](O)[C@H](NC(=N)N)[C@@H](O)[C@@H]3NC(=N)N)O[C@@H](C)[C@]2(O)CO)O[C@@H](CO)[C@H](O)[C@H]1O [Dihydrostreptomycin sulfate] | inactive: 0.569
CC/C(=C(\c1ccccc1)c1ccc(OCCN(C)C)cc1)c1ccccc1 [Tamoxifen citrate] | inactive: 1.13
CCc1oc2ccccc2c1C(=O)c1cc(Br)c(O)c(Br)c1 [Benzbromarone] | inactive: 0.487
CN(C)CCOC(c1ccc(Cl)cc1)c1ccccn1 (configuration not stated) [Carbinoxamine maleate salt] | inactive: 2.3

Another view of part of the listing above:

| Structure (SMILES) | cell-surface Lgr5 expression |
| --- | --- |
| C#C[C@]1(O)CC[C@H]2[C@@H]3CCC4=C(CCC(=O)C4)[C@H]3CC[C@@]21C [Norethynodrel] | inactive: 1.22 |
| NS(=O)(=O)c1cc2c(cc1Cl)NC(CC1CCCC1)NS2(=O)=O (configuration not stated) [Cyclopenthiazide] | inactive: 1.23 |
